Data reported in PubChem BioAssay AID248 (DTP/NCI, 2004).
The list does not hold the whole screen: it is rich in T/C values a quarter to a half above the control, in often repeated tests (any T/C) and in doses without a T/C. Other doses and runs of a compound stand elsewhere. T/C: endpoint of the treated group in % of that of the vehicle group. Some entries give survivors of the animals treated and no T/C: the source files T/C as zero there, which appears to mark a toxic dose or a test without result, not a measured value. Some doses without a T/C left all or most animals alive at the check, yet need not have been tolerated: survival well below the control is almost never listed, so the zero probably covers shortened survival too. Counts of survivors are from the toxicity check (mostly the fifth day) where no day follows; animals may have died later. Schedules are NCI's codes, taken here to give the interval after Q, in days (D) or hours (H), and the number of doses after X. Some doses were run more than once; their values stand side by side, smallest first. Some schedules carry Z or #; the key to these is not given. Where survival is the endpoint, the PubChem record calls one and a half times the control and up active, and a quarter to a half above the control has no call in these data; cut-offs in other NCI protocols can differ. Some T/C values are followed by the survivors on the day toxicity was checked, most often the fifth; without a count, all were alive then.

System: L1210 leukemia ip in BDF1 mice, survival T/C
Assay: NCI In Vivo Anticancer Drug Screen. Data for tumor model L1210 Leukemia (intraperitoneal) in B6D2F1 (BDF1) mice
Details: T/C endpoint: mean survival time, higher T/C = longer survival
[1] = dose: 400.0 mg/kg/injection, schedule: Q01DX001 (ip), vehicle: saline
[2] = dose: 400.0 mg/kg/injection, schedule: Q04DX002 (ip), vehicle: saline

N=C(N)Cc1ccc(NC(=O)c2ccc(C(=O)Nc3ccc(CC(=N)N)cc3)cc2)cc1
T/C (dose: 7.5 mg/kg/injection, schedule: Q01DX Z (ip), vehicle: saline): 131 % of control
T/C (dose: 15.0 mg/kg/injection, schedule: Q01DX Z (ip), vehicle: methylcellulose (MC)): 131 % of control
T/C (dose: 15.0 mg/kg/injection, schedule: Q01DX Z (ip), vehicle: saline): 140 % of control
T/C (dose: 16.5 mg/kg/injection, schedule: Q01DX009 (ip), vehicle: saline): 131 % of control
T/C (dose: 25.0 mg/kg/injection, schedule: Q01DX009 (ip), vehicle: saline): 126 % of control
T/C (dose: 33.0 mg/kg/injection, schedule: Q01DX001 (ip), vehicle: carboxymethylcellulose (CMC)): 125 % of control
T/C (dose: 33.0 mg/kg/injection, schedule: Q04DX003 (ip), vehicle: saline): 127 % of control
survivor count (dose: 37.5 mg/kg/injection, schedule: Q01DX009 (ip), vehicle: saline): 6 of 6
T/C (dose: 50.0 mg/kg/injection, schedule: Q01DX001 (ip), vehicle: carboxymethylcellulose (CMC)): 127 and 142 % of control
survivor count (dose: 50.0 mg/kg/injection, schedule: Q01DX009 (ip), vehicle: saline): 0 of 6
T/C (dose: 50.0 mg/kg/injection, schedule: Q04DX003 (ip), vehicle: saline): 125, 128, 132 % of control
survivor count (dose: 60.0 mg/kg/injection, schedule: Q01DX Z (ip), vehicle: saline): 0 of 6
T/C (dose: 75.0 mg/kg/injection, schedule: Q04DX003 (ip), vehicle: saline): 138 % of control [4 of 6 alive]
survivor count (dose: 100.0 mg/kg/injection, schedule: Q01DX001 (ip), vehicle: carboxymethylcellulose (CMC)): 1 of 4
survivor count (dose: 100.0 mg/kg/injection, schedule: Q01DX009 (ip), vehicle: saline): 0 of 6
survivor count (dose: 120.0 mg/kg/injection, schedule: Q01DX Z (ip), vehicle: saline): 0 of 6
survivor count (dose: 200.0 mg/kg/injection, schedule: Q01DX001 (ip), vehicle: carboxymethylcellulose (CMC)): 0 of 4
survivor count (dose: 400.0 mg/kg/injection, schedule: Q01DX001 (ip), vehicle: carboxymethylcellulose (CMC)): 0 of 4

CN(C)CCC(=O)c1ccc(Cl)cc1
survivor count (dose: 200.0 mg/kg/injection, schedule: Q01DX009 (ip), vehicle: saline): 1 of 3 and 2 of 6
survivor count [1]: 0 of 6
survivor count [2]: 0 of 3 and 0 of 6

Cn1cnc2c3cccnc3ccc21
survivor count (dose: 300.0 mg/kg/injection, schedule: Q01DX001 (ip), vehicle: saline): 1 of 6

CC1(CBr)OCCCO1
survivor count (dose: 200.0 mg/kg/injection, schedule: Q04DX002 (ip), vehicle: saline with Tween-80): 2 of 3
survivor count (dose: 400.0 mg/kg/injection, schedule: Q04DX002 (ip), vehicle: saline with Tween-80): 0 of 3

CCN1CCC(CCOC)(CN2c3ccccc3Sc3ccc(Cl)cc32)C1 (configuration not stated)
survivor count (dose: 200.0 mg/kg/injection, schedule: Q04DX003 (ip), vehicle: saline): 4 of 6
survivor count (dose: 400.0 mg/kg/injection, schedule: Q04DX003 (ip), vehicle: saline): 0 of 6

O=C(O)c1c(-c2ccccc2)oc(-c2ccccc2)c1C(=O)O
survivor count [2]: 3 of 3

CCCC1(c2ccccc2)NC(=O)NC1=O (configuration not stated)
survivor count [1]: 2 of 4

Nc1nc2ncc(=O)[nH]c2c(=O)[nH]1
survivor count (dose: 400.0 mg/kg/injection, schedule: Q01DX009 (ip), vehicle: saline): 0 of 6

O=C(Nc1ccccc1C(F)(F)F)c1ccc(Cl)c(Cl)c1
survivor count (dose: 400.0 mg/kg/injection, schedule: Q01DX009 (ip), vehicle: Klucel (hydroxypropylcellulose) (HPC)): 2 of 6

CCCCCCCCCCCCNC(=O)c1ccc[n+](Cc2ccccc2)c1
survivor count (dose: 20.0 mg/kg/injection, schedule: Q01DX009 (ip), vehicle: saline): 0 of 6
survivor count (dose: 20.0 mg/kg/injection, schedule: Q04DX003 (ip), vehicle: saline sonified): 5 of 6
